{"sequences": {"note": "By UniProt entry, the sequences of proteins in these tests, tags left out. Residues count along the entry.", "UniProt Q14416, 19-872": "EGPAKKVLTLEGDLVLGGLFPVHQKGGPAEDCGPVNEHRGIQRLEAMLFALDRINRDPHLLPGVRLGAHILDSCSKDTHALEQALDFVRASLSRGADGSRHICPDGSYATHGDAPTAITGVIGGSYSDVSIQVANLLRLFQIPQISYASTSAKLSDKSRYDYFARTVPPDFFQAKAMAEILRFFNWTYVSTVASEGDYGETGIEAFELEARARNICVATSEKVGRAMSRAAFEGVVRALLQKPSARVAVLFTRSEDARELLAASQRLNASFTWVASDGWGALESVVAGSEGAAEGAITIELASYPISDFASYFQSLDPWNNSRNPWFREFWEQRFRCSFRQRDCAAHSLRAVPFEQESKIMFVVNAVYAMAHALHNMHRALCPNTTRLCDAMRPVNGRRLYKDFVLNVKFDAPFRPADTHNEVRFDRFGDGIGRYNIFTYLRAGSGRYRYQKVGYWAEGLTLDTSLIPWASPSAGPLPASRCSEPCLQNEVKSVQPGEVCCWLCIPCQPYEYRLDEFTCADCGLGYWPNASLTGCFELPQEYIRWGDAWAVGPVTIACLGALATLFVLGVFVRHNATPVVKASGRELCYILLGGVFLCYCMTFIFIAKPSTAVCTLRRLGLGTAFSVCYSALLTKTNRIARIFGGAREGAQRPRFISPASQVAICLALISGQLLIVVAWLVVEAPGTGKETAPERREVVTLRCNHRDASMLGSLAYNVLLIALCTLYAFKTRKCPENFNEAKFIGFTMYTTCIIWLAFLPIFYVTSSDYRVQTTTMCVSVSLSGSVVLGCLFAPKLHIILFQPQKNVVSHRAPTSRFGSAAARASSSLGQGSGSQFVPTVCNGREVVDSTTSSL"}, "source": "patent US10221179B2", "about": "“Substituted pyrazoloquinazolinones and pyrroloquinazolinones as allosteric modulators of group II metabotropic glutamate receptors” (DOMAIN THERAPEUTICS, priority 2014, dated 2019)", "note": "Some of these results come from one statement about several compounds together."}
{"molecular_target": "T1, human mGluR2 (hmGluR2) (Homo sapiens, UniProt Q14416)", "T1 construct": "expressed in transfected cells; host or cells: HEK-293 cells, transient co-transfection by electroporation", "experiment": "Ca++ functional assay, human mGluR2 transiently over-expressed in HEK-293 cells (agonist and negative allosteric modulator modes)", "assay_type": "cell-based", "settings": "selectivity for mGluR2 over mGluR3; IC50 values from the Ca++ functional assay of Example 127", "description": "Example 127: Human mGluR2 and mGluR3 Evaluation Using Ca^++ Functional Assay\nExamples of the present invention were tested successively for their agonist and negative allosteric modulator activities on human mGluR2 (hmGluR2) and mGluR3 (hmGluR3) transiently over-expressed in HEK-293 cells.\nCell Culture and Transfection\nHEK-293 cells are maintained in Modified Eagle's Medium supplemented with 10% Foetal Calf Serum, 1% Penicillin/Streptomycin and 1% non-essential amino acids at 37° C./5% CO2.\nCells are co-transfected by electroporation with four DNA plasmids encoding hmGluR2 or hmGluR3, a chimeric G protein allowing redirection of the activation signal to intracellular calcium pathway (Brabet I et al., Neuropharmacology 37(8), 1043-51, 1998), and two glutamate transporters minimizing receptor desensitization by endogenous glutamate. After transfection, cells are cultured for 24 h at 37° C./5% CO2.\nCalcium Assay IC50 Determination\nReceptor activity is detected by changes in intracellular calcium measured using the fluorescent Ca^2+ sensitive dye, Fluo4AM (Molecular Probes).\nOn the day of the assay, culture medium is aspirated and replaced during 3 hours by medium without serum supplemented with 1% Glutamax, 1% Penicillin/Streptomycin and 1% non-essential amino acids. Then, cells are washed with freshly prepared buffer B (HBSS 1×(PAA), Hepes 20 mM, MgSO4-7H2O 1 mM, Na2CO3 3.3 mM, CaCl2-2H2O 1.3 mM, 0.1% BSA, Probenecid 2.5 mM) and loaded at 37° C. in 5% CO2 for 1.5 hours with buffer B containing 1 μM Fluo4AM, 0.1 mg/mL Pluronic Acid, 7 μg/mL Glutamate Pyruvate Transaminase and 2 mM sodium pyruvate. Afterwards cells are washed twice with buffer B. Then cells are detached using StemPro Accutase (Fischer Scientific), resuspended in buffer B and seeded in 384 well plate at a density of 30,000 cells per well. Addition of compounds and intracellular Ca^2+ measurements (excitation 485 nm, emission 525 nm) are performed by the fluorescence microplate reader FLIPRTetra (Molecular Devices).\nAgonist and negative allosteric modulator activities of compounds are consecutively evaluated on the same cell plate. […] Then, cells are stimulated by an EC80 glutamate concentration and fluorescence is recorded for additional 3 minutes. EC80 glutamate concentration is the concentration giving 80% of the maximal glutamate response. Agonist or negative allosteric modulator activity(ies) are evaluated in comparison to basal signals evoked by buffer B or EC80 glutamate alone, respectively.\nFor IC50 determination, a dose-response test is performed using 20 concentrations (ranging over 6 logs) of each compound. Dose-response curves are fitted using the sigmoidal dose-response (variable slope) analysis in GraphPad Prism program (Graph Pad Inc) and IC50 of negative allosteric modulator activity is calculated. Dose-response experiments are performed in duplicate, two times independently."}
{"smiles": "Cc1cc(-c2cc3n(C)c(=O)c4ccccc4n3n2)ccn1", "note": "[Example 2, 4-methyl 2-(2-methyl-pyridin-4-yl)-4H-pyrazolo[1,5-a]quinazolin-5-one]", "ratio [IC50 hmGluR3]/[IC50 hmGluR2]": "higher than 3"}
{"smiles": "CCc1cc(-c2cc3n(C)c(=O)c4ccccc4n3n2)ccn1.Cl", "note": "[Example 3, 2-(2-Ethyl-pyridin-4-yl)-4-methyl-4H-pyrazolo[1,5-a]quinazolin-5-one]", "ratio [IC50 hmGluR3]/[IC50 hmGluR2]": "higher than 3"}
{"smiles": "CCCc1cc(-c2cc3n(C)c(=O)c4ccccc4n3n2)ccn1.Cl", "note": "[Example 4, 2-(2-propyl-pyridin-4-yl)-4-methyl-4H-pyrazolo[1,5-a]quinazolin-5-one]", "ratio [IC50 hmGluR3]/[IC50 hmGluR2]": "higher than 3"}
{"smiles": "Cl.Cn1c(=O)c2ccccc2n2nc(-c3ccnc(C4CC4)c3)cc12", "note": "[Example 5, 2-(2-Cyclopropyl-pyridin-4-yl)-4-methyl-4H-pyrazolo[1,5-a]quinazolin-5-one]", "ratio [IC50 hmGluR3]/[IC50 hmGluR2]": "higher than 3"}
{"smiles": "Cl.Cn1c(=O)c2ccccc2n2nc(-c3ccnc(C4CCC4)c3)cc12", "note": "[Example 6, 2-(2-cyclobutyl-pyridin-4-yl)-4-methyl-4H-pyrazolo[1,5-a]quinazolin-5-one]", "ratio [IC50 hmGluR3]/[IC50 hmGluR2]": "higher than 3"}
{"smiles": "C=C(C)c1cc(-c2cc3n(C)c(=O)c4ccccc4n3n2)ccn1", "note": "[Example 10, 2-(2-Isopropenyl-pyridin-4-yl)-4-methyl-4H-pyrazolo[1,5-a]quinazolin-5-one]", "ratio [IC50 hmGluR3]/[IC50 hmGluR2]": "higher than 3"}
{"smiles": "CC(C)c1cc(-c2cc3n(C)c(=O)c4ccccc4n3n2)ccn1.Cl", "note": "[Example 11, 2-(2-Isopropyl-pyridin-4-yl)-4-methyl-4H-pyrazolo[1,5-a]quinazolin-5-one]", "ratio [IC50 hmGluR3]/[IC50 hmGluR2]": "higher than 3"}
{"smiles": "Cn1c(=O)c2ccccc2n2nc(-c3ccnc(C#N)c3)cc12", "note": "[Example 12, 4-(4-Methyl-5-oxo-4,5-dihydro-pyrazolo[1,5-a]quinazolin-2-yl)-pyridine-2-carbonitrile]", "ratio [IC50 hmGluR3]/[IC50 hmGluR2]": "higher than 3"}
{"smiles": "COc1cc(-c2cc3n(C)c(=O)c4ccccc4n3n2)ccn1", "note": "[Example 14, 2-(2-Methoxy-pyridin-4-yl)-4-methyl-4H-pyrazolo[1,5-a]quinazolin-5-one]", "ratio [IC50 hmGluR3]/[IC50 hmGluR2]": "higher than 3"}
{"smiles": "CCOc1cc(-c2cc3n(C)c(=O)c4ccccc4n3n2)ccn1", "note": "[Example 15, 2-(2-ethoxy-pyridin-4-yl)-4-methyl-4H-pyrazolo[1,5-a]quinazolin-5-one]", "ratio [IC50 hmGluR3]/[IC50 hmGluR2]": "higher than 3"}
{"smiles": "CC(C)Oc1cc(-c2cc3n(C)c(=O)c4ccccc4n3n2)ccn1", "note": "[Example 16, 2-(2-Isopropoxy-pyridin-4-yl)-4-methyl-4H-pyrazolo[1,5-a]quinazolin-5-one]", "ratio [IC50 hmGluR3]/[IC50 hmGluR2]": "higher than 3"}
{"smiles": "Cn1c(=O)c2ccccc2n2nc(-c3ccnc(OC4CCC4)c3)cc12", "note": "[Example 17, 2-(2-Cyclobutoxy-pyridin-4-yl)-4-methyl-4H-pyrazolo[1,5-a]quinazolin-5-one]", "ratio [IC50 hmGluR3]/[IC50 hmGluR2]": "higher than 3"}
{"smiles": "Cn1c(=O)c2ccccc2n2nc(-c3ccnc(OCC4CC4)c3)cc12", "note": "[Example 19, 2-(2-Cyclopropylmethoxy-pyridin-4-yl)-4-methyl-4H-pyrazolo[1,5-a]quinazolin-5-one]", "ratio [IC50 hmGluR3]/[IC50 hmGluR2]": "higher than 3"}
{"smiles": "Cn1c(=O)c2ccccc2n2nc(-c3ccnc(OCC(F)(F)F)c3)cc12", "note": "[Example 21, 4-Methyl-2-[2-(2,2,2-trifluoro-ethoxy)-pyridin-4-yl]-4H-pyrazolo[1,5-a]quinazolin-5-one]", "ratio [IC50 hmGluR3]/[IC50 hmGluR2]": "higher than 3"}
{"smiles": "Cn1c(=O)c2ccccc2n2nc(-c3ccnc(OCC(F)F)c3)cc12", "note": "[Example 22, 4-Methyl-2-[2-(2,2-difluoro-ethoxy)-pyridin-4-yl]-4H-pyrazolo[1,5-a]quinazolin-5-one]", "ratio [IC50 hmGluR3]/[IC50 hmGluR2]": "higher than 3"}
{"smiles": "Cn1c(=O)c2ccccc2n2nc(-c3ccnc(OCC(C)(F)F)c3)cc12", "note": "[Example 23, 2-[2-(2,2-Difluoro-propoxy)-pyridin-4-yl]-4-methyl-4H-pyrazolo[1,5-a]quinazolin-5-one]", "ratio [IC50 hmGluR3]/[IC50 hmGluR2]": "higher than 3"}
{"smiles": "Cn1c(=O)c2ccccc2n2nc(-c3ccnc(OCC(F)(F)C(F)(F)F)c3)cc12", "note": "[Example 24, 4-Methyl-2-[2-(2,2,3,3,3-pentafluoro-propoxy)-pyridin-4-yl]-4H-pyrazolo[1,5-a]quinazolin-5-one]", "ratio [IC50 hmGluR3]/[IC50 hmGluR2]": "higher than 3"}
{"smiles": "Cn1c(=O)c2ccccc2n2nc(-c3ccnc(OC(C(F)(F)F)C(F)(F)F)c3)cc12", "note": "[Example 25, 4-Methyl-2-[2-(2,2,2-trifluoro-1-trifluoromethyl-ethoxy)-pyridin-4-yl]-4H-pyrazolo[1,5-a]quinazolin-5-one]", "ratio [IC50 hmGluR3]/[IC50 hmGluR2]": "higher than 3"}
{"smiles": "Cn1c(=O)c2ccccc2n2nc(-c3ccnc(C(F)(F)F)c3)cc12", "note": "[Example 26, 4-Methyl-2-(2-trifluoromethyl-pyridin-4-yl)-4H-pyrazolo[1,5-a]quinazolin-5-one]", "ratio [IC50 hmGluR3]/[IC50 hmGluR2]": "higher than 3"}
{"smiles": "[2H]C([2H])([2H])n1c(=O)c2ccccc2n2nc(-c3ccnc(C(F)(F)F)c3)cc12", "note": "[Example 27, 4-Methyl(D3)-2-(2-trifluoromethyl-pyridin-4-yl)-4H-pyrazolo[1,5-a]quinazolin-5-one]", "ratio [IC50 hmGluR3]/[IC50 hmGluR2]": "higher than 3"}
{"smiles": "CCn1c(=O)c2ccccc2n2nc(-c3ccnc(C(F)(F)F)c3)cc12", "note": "[Example 28, 4-Ethyl-2-(2-trifluoromethyl-pyridin-4-yl)-4H-pyrazolo[1,5-a]quinazolin-5-one]", "ratio [IC50 hmGluR3]/[IC50 hmGluR2]": "higher than 3"}
{"smiles": "Cn1c(=O)c2ccccc2n2nc(-c3ccnc(C(F)F)c3)cc12", "note": "[Example 31, 4-Methyl-2-(2-difluoromethyl-pyridin-4-yl)-4H-pyrazolo[1,5-a]quinazolin-5-one]", "ratio [IC50 hmGluR3]/[IC50 hmGluR2]": "higher than 3"}
{"smiles": "Cn1c(=O)c2ccccc2n2nc(-c3ccnc(C(C)(F)F)c3)cc12", "note": "[Example 32, 2-[2-(1,1-Difluoro-ethyl)-pyridin-4-yl]-4-methyl-4H-pyrazolo[1,5-a]quinazolin-5-one]", "ratio [IC50 hmGluR3]/[IC50 hmGluR2]": "higher than 3"}
{"smiles": "[2H]C([2H])([2H])n1c(=O)c2ccccc2n2nc(-c3ccnc(C(C)(F)F)c3)cc12", "note": "[Example 33, 2-[2-(1,1-Difluoro-ethyl)-pyridin-4-yl]-4-methyl(D3)-4H-pyrazolo[1,5-a]quinazolin-5-one]", "ratio [IC50 hmGluR3]/[IC50 hmGluR2]": "higher than 3"}
{"smiles": "Cc1ccc2c(c1)c(=O)n(C)c1cc(-c3ccnc(C(F)(F)F)c3)nn21", "note": "[Example 34]", "ratio [IC50 hmGluR3]/[IC50 hmGluR2]": "higher than 3"}
{"smiles": "Cn1c(=O)c2cc(Cl)ccc2n2nc(-c3ccnc(C(F)(F)F)c3)cc12", "note": "[Example 35]", "ratio [IC50 hmGluR3]/[IC50 hmGluR2]": "higher than 3"}
{"smiles": "COc1ccc2c(c1)c(=O)n(C)c1cc(-c3ccnc(C(F)(F)F)c3)nn21", "note": "[Example 36]", "ratio [IC50 hmGluR3]/[IC50 hmGluR2]": "higher than 3"}
{"smiles": "Cn1c(=O)c2cc(F)ccc2n2nc(-c3ccnc(C(F)(F)F)c3)cc12", "note": "[Example 38]", "ratio [IC50 hmGluR3]/[IC50 hmGluR2]": "higher than 3"}
{"smiles": "Cn1c(=O)c2cc(Br)ccc2n2nc(-c3ccnc(C(F)(F)F)c3)cc12", "note": "[Example 39]", "ratio [IC50 hmGluR3]/[IC50 hmGluR2]": "higher than 3"}
{"smiles": "CNc1ccc2c(c1)c(=O)n(C)c1cc(-c3ccnc(C(F)(F)F)c3)nn21", "note": "[Example 40, 4-Methyl-7-methylamino-2-(2-trifluoromethyl-pyridin-4-yl)-4H-pyrazolo[1,5-a]quinazolin-5-one]", "ratio [IC50 hmGluR3]/[IC50 hmGluR2]": "higher than 3"}
